PubChem BioAssay AID504808 | Drosophila RNAi Screening Center | 2011
Aim: 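Genes whose loss lifts activity of an E2F-responsive reporter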 (primary screen). Cells: Drosophila S2 cells. Reagents: long dsRNA against Drosophila genes. Detection: 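Firefly luciferase driven by E2F sites, normalised to Renilla luciferase on the same minimal promoter, measured by plate reader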. Scale: E2F firefly: higher = more E2F reporter activity; Renilla normaliser: higher = more normaliser reporter signal. Active means: 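a knock-down counted as active when the firefly/Renilla E2F signal rose above 50%, a threshold chosen arbitrarily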.
The deposit covers about 21,000 reagents; below is a random part of those that have a named target and a result. Over the whole deposit, 18 (0.084%) were called active. 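Raw counts without plate normalisation, one of two replicates; the ratio scores behind the calls were not deposited.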 Unmarked entries are inactive. The numbers tell different reagents against one gene apart. A plus sign joins genes that one reagent is predicted to hit. Not given: the amount of reagent, the time to read-out.

gene	dsRNA no.	E2F firefly, rep 1	Renilla normaliser, rep 1
topi (matotopetli)	1	1.25e5	6417
Adgf-B (Adenosine deaminase-related growth factor B)	1	1.69e5	7902
Stat92E	1	59782	2921
RpL12 (Ribosomal protein L12)	1	80742	5371
CheB42c (Chemosensory protein B 42c)	1	1.44e5	5032
Mat1 (Menage a trois 1)	1	1.40e5	5008
Cyp313a4 (Cytochrome P450 313a4)	1	1.46e5	7024
Polr3A (RNA polymerase III subunit A)	1	2.46e5	5771
Spn88Eb (Serpin 88Eb)	1	70396	3443
CG10053	1	76002	3524
unc-5	1	1.35e5	5096
unc-5	2	94631	3835
unc-5	3	1.03e5	4541
CG12010	1	98227	4348
Tak1 (TGF-beta activated kinase 1)	1	85000	2428
Tak1 (TGF-beta activated kinase 1)	2	1.55e5	6599
Tak1 (TGF-beta activated kinase 1)	3	1.32e5	6701
pug (pugilist)	1	1.41e5	6674
Cse1 (Chromosome segregation 1)	1	73374	4011
CG11369	1	1.26e5	6734
CG17567 (retired record)	1	1.05e5	4259
CG15452	1	1.38e5	6138
Grip163	1	1.32e5	5300
lectin-24A	1	1.51e5	5198
RabX6	1	88242	3773
CheB38c (Chemosensory protein B 38c)	1	1.09e5	4810
Spase22-23 (Spase 22/23-subunit)	1	1.16e5	6603
Snap29 (Synaptosomal-associated protein 29kDa)	1	91595	4584
Hip14 (Huntingtin-interacting protein 14)	1	83920	3203
mthl3 (methuselah-like 3)	1	67555	3187
fw (furrowed)	1	78587	4912
Sec24AB (Secretory 24AB)	1	2640	221
Gpo3 (Glycerophosphate oxidase 3)	1	1.02e5	4170
Shaw (Shaker cognate w)	1	1.44e5	5555
Shaw (Shaker cognate w)	2	1.39e5	4726
SP (Sex Peptide)	1	1.19e5	6506
EMRE (Essential MCU regulator)	1	1.35e5	4468
CG30427	1	1.32e5	6477
CG30427	2	84920	3511
CG30427	3	97971	3615
Hmgcr (HMG Coenzyme A reductase)	1	86244	5804
CG9961	1	1.72e5	5325
tHMG2 (testis-enriched HMG-box-containing protein 2)	1	1.04e5	5986
CG9522	1	2.44e5	8086
CG15923	1	56183	3022
CG31371	1	1.28e5	6501
fabp + sea	1	75523	3737
fabp + sea	2	75878	3788
CG40583 (retired record)	1	83597	2728
CG12590	1	1.25e5	4994
cv (crossveinless)	1	45597	3924
CG31321	1	90229	2772
Fmr1 (Fragile X messenger ribonucleoprotein 1)	1	1.55e5	6579
CRAT (Carnitine O-Acetyl-Transferase)	1	1.45e5	6186
chb (chromosome bows)	1	98542	4037
l(2)37Cd (lethal (2) 37Cd)	1	79148	3155
CG42271	1	7919	760
tef (teflon)	1	75149	3992
PI31 (Proteasome inhibitor 31 kDa)	1	3905	29
dia (diaphanous)	1	91813	4416
CG4328	1	88319	5023
CG9498	1	1.43e5	5192

Reformatted: results already given.
CG12590
- E2F firefly, rep 1: 1.25e5
- Renilla normaliser, rep 1: 4994

cv (crossveinless)
- E2F firefly, rep 1: 45597
- Renilla normaliser, rep 1: 3924

CG31321
- E2F firefly, rep 1: 90229
- Renilla normaliser, rep 1: 2772

Fmr1 (Fragile X messenger ribonucleoprotein 1)
- E2F firefly, rep 1: 1.55e5
- Renilla normaliser, rep 1: 6579

CRAT (Carnitine O-Acetyl-Transferase)
- E2F firefly, rep 1: 1.45e5
- Renilla normaliser, rep 1: 6186

chb (chromosome bows)
- E2F firefly, rep 1: 98542
- Renilla normaliser, rep 1: 4037
